Test results published in the supplement of paper PMC10849652.
This is one part of the list.

Chains of the proteins cited; added tags and fusions are not shown. Lines headed by an entry give the natural chain unless they say otherwise; changes in a name come on top.
UniProt Q9UKE5: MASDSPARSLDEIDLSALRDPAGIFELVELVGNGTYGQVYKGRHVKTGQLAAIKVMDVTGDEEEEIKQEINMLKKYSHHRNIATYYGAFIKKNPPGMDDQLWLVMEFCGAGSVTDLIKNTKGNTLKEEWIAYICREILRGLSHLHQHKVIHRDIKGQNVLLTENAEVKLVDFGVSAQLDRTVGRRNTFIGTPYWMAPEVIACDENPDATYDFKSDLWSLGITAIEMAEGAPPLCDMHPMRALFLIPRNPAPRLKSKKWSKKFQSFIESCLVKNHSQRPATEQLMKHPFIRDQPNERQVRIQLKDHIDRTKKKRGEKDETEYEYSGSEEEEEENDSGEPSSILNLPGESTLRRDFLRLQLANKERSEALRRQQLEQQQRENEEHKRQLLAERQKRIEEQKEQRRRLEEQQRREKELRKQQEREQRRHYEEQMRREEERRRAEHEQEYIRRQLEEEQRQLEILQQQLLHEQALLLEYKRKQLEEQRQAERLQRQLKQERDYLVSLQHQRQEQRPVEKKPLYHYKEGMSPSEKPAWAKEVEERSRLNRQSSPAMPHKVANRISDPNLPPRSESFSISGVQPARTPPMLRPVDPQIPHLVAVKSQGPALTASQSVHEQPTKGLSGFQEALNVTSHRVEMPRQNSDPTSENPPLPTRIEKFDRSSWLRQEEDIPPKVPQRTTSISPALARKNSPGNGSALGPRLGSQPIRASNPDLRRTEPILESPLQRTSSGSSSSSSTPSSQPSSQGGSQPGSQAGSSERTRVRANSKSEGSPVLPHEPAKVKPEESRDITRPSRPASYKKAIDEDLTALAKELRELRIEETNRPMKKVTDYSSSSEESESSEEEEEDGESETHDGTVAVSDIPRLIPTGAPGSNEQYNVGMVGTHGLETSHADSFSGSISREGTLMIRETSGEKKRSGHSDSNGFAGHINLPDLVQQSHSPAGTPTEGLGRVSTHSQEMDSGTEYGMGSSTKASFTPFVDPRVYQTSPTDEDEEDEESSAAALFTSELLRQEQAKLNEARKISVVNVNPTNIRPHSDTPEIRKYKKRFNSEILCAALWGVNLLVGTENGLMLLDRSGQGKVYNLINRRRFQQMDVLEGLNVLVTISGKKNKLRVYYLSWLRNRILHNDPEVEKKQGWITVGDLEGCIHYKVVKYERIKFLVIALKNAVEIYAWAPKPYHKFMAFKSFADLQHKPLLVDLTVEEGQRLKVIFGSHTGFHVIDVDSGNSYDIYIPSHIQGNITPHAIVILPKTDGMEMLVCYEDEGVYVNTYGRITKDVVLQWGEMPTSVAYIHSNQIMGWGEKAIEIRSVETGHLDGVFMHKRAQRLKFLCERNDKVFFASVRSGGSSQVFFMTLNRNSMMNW
UniProt Q96S44: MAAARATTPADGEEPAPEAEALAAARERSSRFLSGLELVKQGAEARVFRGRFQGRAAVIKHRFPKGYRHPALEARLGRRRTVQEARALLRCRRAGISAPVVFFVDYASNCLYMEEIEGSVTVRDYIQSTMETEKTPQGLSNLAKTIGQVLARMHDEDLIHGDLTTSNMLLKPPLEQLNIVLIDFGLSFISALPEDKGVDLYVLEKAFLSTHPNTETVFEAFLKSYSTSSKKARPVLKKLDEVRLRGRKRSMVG
UniProt Q9H496: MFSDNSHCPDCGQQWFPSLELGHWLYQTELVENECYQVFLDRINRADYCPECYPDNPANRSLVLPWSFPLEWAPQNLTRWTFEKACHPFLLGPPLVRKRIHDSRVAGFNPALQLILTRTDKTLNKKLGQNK
UniProt Q5BJF2, whole entry, looked up: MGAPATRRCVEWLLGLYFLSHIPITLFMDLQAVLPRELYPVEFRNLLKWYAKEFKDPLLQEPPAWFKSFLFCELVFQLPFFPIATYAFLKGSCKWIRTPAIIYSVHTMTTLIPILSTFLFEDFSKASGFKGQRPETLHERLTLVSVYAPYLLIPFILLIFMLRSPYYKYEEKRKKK
UniProt O94826, whole entry, looked up: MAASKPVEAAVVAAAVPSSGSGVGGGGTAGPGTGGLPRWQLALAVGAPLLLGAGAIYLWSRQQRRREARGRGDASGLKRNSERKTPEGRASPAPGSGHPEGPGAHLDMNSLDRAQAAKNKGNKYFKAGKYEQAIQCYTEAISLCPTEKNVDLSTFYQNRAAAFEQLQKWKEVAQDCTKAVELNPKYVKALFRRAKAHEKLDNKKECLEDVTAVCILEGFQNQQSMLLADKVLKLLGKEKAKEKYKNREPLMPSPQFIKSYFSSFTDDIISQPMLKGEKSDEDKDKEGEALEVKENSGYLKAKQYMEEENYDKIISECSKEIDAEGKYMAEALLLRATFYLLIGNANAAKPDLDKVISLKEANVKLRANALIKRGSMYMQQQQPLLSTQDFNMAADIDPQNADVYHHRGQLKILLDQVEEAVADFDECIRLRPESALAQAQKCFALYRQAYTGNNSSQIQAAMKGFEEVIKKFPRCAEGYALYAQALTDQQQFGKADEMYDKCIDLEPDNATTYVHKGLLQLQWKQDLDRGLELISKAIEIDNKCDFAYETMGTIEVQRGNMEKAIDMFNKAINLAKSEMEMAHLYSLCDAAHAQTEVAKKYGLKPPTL
UniProt Q96HV5: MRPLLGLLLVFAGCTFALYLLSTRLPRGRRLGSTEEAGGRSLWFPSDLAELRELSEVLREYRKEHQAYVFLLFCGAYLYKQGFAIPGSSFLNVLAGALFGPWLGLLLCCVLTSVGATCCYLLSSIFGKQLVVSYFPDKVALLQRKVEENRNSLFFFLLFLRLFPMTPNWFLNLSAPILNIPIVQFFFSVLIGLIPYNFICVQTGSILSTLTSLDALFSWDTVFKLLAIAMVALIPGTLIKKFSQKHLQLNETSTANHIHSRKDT
UniProt Q9P0U1: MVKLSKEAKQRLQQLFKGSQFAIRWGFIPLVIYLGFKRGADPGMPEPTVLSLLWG
UniProt O60704: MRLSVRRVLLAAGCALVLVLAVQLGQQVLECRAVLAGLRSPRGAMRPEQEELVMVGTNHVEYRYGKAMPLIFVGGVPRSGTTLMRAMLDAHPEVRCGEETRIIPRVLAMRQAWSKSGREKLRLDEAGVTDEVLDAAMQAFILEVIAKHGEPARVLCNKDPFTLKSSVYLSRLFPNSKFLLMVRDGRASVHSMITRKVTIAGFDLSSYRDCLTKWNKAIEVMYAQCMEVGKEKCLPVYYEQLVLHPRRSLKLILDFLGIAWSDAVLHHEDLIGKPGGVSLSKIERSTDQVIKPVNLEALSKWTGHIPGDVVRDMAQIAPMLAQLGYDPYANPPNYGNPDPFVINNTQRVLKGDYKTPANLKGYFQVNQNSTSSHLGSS
UniProt O14656: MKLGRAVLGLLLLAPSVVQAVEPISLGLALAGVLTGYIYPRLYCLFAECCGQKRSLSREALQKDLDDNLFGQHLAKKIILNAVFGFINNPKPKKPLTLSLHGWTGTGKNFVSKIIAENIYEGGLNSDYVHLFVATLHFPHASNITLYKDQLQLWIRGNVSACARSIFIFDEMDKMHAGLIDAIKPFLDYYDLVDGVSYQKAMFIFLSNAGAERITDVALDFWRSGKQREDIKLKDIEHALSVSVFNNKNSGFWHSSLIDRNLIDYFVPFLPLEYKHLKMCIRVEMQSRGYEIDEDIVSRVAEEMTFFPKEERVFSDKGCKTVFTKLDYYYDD
UniProt Q9Y5L0: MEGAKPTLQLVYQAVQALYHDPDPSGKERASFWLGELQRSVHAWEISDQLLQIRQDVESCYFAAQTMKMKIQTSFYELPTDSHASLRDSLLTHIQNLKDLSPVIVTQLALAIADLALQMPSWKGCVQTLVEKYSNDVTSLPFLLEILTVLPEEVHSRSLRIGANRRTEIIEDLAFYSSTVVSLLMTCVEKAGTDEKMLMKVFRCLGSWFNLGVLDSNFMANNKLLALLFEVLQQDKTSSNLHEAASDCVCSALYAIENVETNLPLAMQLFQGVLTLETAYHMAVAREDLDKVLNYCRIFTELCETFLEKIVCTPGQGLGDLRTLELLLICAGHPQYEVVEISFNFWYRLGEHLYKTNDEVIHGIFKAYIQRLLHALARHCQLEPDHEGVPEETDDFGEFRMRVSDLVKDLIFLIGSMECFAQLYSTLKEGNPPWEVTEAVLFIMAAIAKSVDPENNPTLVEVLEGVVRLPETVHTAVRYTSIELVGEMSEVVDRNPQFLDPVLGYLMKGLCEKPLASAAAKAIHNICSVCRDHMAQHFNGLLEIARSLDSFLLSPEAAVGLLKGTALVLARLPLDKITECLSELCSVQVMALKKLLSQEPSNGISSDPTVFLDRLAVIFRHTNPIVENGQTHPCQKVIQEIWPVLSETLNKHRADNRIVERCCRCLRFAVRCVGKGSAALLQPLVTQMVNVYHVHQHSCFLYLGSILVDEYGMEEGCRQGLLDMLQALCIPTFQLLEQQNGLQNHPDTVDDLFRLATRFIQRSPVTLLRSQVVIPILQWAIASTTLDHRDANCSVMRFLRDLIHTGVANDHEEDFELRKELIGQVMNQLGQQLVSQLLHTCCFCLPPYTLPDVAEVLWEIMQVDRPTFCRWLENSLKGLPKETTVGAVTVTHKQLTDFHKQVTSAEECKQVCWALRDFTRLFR
UniProt P06753, whole entry, looked up: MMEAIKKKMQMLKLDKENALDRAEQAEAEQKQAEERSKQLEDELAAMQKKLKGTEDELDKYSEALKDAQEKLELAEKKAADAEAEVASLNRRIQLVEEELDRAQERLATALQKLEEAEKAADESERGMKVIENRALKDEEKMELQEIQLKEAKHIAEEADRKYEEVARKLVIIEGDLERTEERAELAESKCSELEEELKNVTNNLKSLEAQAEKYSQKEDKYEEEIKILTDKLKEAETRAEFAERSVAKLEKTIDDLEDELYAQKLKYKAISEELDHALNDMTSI
UniProt Q9UPQ9, whole entry, looked up: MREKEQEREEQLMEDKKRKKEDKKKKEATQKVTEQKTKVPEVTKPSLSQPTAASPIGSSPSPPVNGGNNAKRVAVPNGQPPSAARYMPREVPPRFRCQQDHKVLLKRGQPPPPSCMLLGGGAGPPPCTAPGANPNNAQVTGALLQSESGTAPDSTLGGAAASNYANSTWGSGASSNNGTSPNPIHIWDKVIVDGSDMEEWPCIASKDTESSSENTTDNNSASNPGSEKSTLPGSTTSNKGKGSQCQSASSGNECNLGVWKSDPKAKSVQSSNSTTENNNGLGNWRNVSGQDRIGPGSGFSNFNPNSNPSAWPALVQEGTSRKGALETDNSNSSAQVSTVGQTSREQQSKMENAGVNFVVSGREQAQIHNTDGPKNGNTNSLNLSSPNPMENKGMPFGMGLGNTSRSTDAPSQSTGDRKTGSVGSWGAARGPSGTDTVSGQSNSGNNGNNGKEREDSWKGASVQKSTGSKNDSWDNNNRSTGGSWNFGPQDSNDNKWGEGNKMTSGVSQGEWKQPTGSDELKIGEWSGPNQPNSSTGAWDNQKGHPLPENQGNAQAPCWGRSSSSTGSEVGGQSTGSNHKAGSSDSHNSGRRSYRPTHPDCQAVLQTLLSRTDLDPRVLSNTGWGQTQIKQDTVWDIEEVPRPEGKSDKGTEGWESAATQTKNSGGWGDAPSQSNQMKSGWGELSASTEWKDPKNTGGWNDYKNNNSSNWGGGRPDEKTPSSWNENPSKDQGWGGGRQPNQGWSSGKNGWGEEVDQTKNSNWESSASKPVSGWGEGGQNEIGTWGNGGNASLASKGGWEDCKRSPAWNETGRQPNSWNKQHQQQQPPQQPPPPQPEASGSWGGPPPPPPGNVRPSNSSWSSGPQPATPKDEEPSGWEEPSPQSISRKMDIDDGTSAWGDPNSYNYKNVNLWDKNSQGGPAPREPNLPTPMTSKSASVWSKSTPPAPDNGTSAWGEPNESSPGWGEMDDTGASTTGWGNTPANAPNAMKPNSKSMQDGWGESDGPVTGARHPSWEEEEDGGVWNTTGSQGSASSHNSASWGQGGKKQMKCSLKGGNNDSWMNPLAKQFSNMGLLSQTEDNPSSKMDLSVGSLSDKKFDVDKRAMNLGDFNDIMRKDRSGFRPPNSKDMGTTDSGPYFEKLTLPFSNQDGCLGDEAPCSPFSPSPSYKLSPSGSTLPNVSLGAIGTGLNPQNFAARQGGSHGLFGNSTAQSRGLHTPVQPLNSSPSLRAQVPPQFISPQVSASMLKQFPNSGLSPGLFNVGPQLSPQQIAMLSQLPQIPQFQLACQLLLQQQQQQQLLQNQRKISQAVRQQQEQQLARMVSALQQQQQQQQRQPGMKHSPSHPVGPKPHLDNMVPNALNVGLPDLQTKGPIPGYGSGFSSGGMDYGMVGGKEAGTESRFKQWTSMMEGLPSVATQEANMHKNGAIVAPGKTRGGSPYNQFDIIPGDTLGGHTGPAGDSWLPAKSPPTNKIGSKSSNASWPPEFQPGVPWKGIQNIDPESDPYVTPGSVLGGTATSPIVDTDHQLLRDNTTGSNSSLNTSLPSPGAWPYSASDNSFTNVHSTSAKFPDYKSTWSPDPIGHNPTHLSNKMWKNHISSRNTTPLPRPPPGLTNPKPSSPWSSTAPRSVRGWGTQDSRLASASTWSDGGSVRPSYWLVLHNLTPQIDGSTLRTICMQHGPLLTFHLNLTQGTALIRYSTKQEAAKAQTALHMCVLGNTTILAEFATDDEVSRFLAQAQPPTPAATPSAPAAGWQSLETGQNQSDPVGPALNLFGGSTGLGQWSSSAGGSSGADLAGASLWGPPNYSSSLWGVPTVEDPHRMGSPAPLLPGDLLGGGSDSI

Key:
Experiment in all cases: log2 fold change, soluble protein after heating vs DMSO (PISA); higher = thermal stabilisation; K562 lysate, 10 uM; active = over 0.2 and 3.5 SD of the protein, either way, in both replicates (recomputed)
erlotinib = compound: C#Cc1cccc(Nc2ncnc3cc(OCCOC)c(OCCOC)cc23)c1 [erlotinib]
How it was run: (§1)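 Following dounce homogenisation of K562 pellets in PBS pH 7.4 with 1 mM MgCl2, crude extract at 1 mg/mL protein was incubated for 30 min with 10 μM compound. Aliquots were then heated for 3 min over 48°C-58°C and pooled, NP-40 was added to 0.5% at 4°C, and soluble protein was recovered as the supernatant at 21,000xg for 90 min. Channel-sum-equalised TMTpro 16plex LC-MS/MS quantified this protein. Each value, from duplicates, is a log-two fold change in thermal stability relative to solvent controls.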

[1] = compound: C/C(=N\NC(=O)C1=CC(=CC=C1)S(=O)(=O)N2CCOCC2)/C3=C(C=CC(=C3)Cl)O
How it was run: as §1

[2] = compound: C1=CC(=CC=C1C2=NC3=C(N2)C=C(C=C3)C(=O)N)OC4=CC=C(C=C4)Cl
How it was run: as §1

[3] = compound: C1=CC2=C(C=CC(=C2)/C=C\3/C(=O)NC(=NCC4=CC=CS4)S3)N=C1
How it was run: as §1

[4] = compound: C1=CC2=NC=CN=C2C=C1/C=C/3\C(=O)NC(=O)S3
How it was run: as §1

[5] = compound: C1=CC=C(C=C1)C2=NC(=C(N2)C3=CC=NC=C3)C4=CC(=C(C=C4)Cl)O
How it was run: as §1

[6] = compound: C1=CC=C2C(=C1)C3=NNC4=CC=CC(=C43)C2=O
How it was run: as §1

[7] = compound: C1CCN(C1)C(=O)NC2=CC=CC(=C2)NC3=NC=C(C(=N3)NCCC4=CN=CN4)Br
How it was run: as §1

[8] = compound: C1CN(CCC1(CC2=CC=C(C=C2)Cl)N)C3=NC=NC4=C3C=CN4
How it was run: as §1

IRAK-1-4 Inhibitor I = compound: C1COCCN1CCN2C3=CC=CC=C3N=C2NC(=O)C4=CC(=CC=C4)[N+](=O)[O-] [IRAK-1-4 Inhibitor I]
How it was run: as §1

ibrutinib = compound: C=CC(=O)N1CCC[C@@H](n2nc(-c3ccc(Oc4ccccc4)cc3)c3c(N)ncnc32)C1 [ibrutinib]
How it was run: as §1

[9] = compound: CC(=O)c1cnc2ccc(-c3cc(Cl)c(O)c(Cl)c3)nc2c1N[C@H]1CC[C@H](CN(C)C)CC1
How it was run: as §1

ralimetinib = compound: CC(C)(C)Cn1c(N)nc2ccc(-c3[nH]c(C(C)(C)C)nc3-c3ccc(F)cc3)nc21 [ralimetinib]
How it was run: as §1

[10] = compound: CC(C)(O)CC(=O)NCCn1ccc2ncnc(Nc3ccc(Oc4cccc(C(F)(F)F)c4)c(Cl)c3)c21
How it was run: as §1

[11] = compound: CC(C)C1=C2N=C(C=C(N2N=C1)NCC3=CC=CC=C3)NCCCCCCN
How it was run: as §1

[12] = compound: CC1=C(C(CC(=O)N1)C2=CC=C(C=C2)C(F)(F)F)C(=O)NC3=C(C=C4C(=C3)C=NN4)F
How it was run: as §1

[13] = compound: CC1=C(C2=C(C=C1)C(=O)C3=CC=CC=C3N2CCCN)C
How it was run: as §1

[14] = compound: CC1=C(C=C(C=C1)NC(=O)C2=CC(=CC=C2)C(C)(C)C#N)NC3=CC4=C(C=C3)N=CN(C4=O)C
How it was run: as §1

[15] = compound: CC1=C(C=C(C=C1)NC(=O)C2=CC(=CC=C2)N(C)C)NC(=O)C3=CC=C(C=C3)O
How it was run: as §1

[16] = compound: CC1=CC=C(C=C1)SC2=C3C=C(SC3=CN=C2)C(=O)N
How it was run: as §1

Target | log2 fold change (erlotinib) | log2 fold change [1] | log2 fold change [2] | log2 fold change [3] | log2 fold change [4] | log2 fold change [5] | log2 fold change [6] | log2 fold change [7] | log2 fold change [8] | log2 fold change (IRAK-1-4 Inhibitor I) | log2 fold change (ibrutinib) | log2 fold change [9] | log2 fold change (ralimetinib) | log2 fold change [10] | log2 fold change [11] | log2 fold change [12] | log2 fold change [13] | log2 fold change [14] | log2 fold change [15] | log2 fold change [16]
TNIK isoform 4 (UniProt Q9UKE5) | inactive: -0.015 | inactive: -0.037 | inactive: -0.035 | inactive: 0.119 | inactive: 0.003 | inactive: 0.125 | inactive: 0.244 | inactive: 0.113 | inactive: -0.031 | inactive: -0.019 | inactive: 0.008 | active: 0.374 | inactive: -0.024 | inactive: -0.005 | inactive: 0.046 | inactive: -0.013 | inactive: -0.019 | inactive: 0.186 | inactive: -0.012 | inactive: -0.068
TP53RK (UniProt Q96S44) | inactive: -0.005 | inactive: 0.025 | inactive: 0.038 | active: -0.24 | active: -0.37 | inactive: -0.03 | inactive: 0.042 | inactive: 0.014 | inactive: -0.022 | inactive: -0.008 | inactive: 0.02 | inactive: -0.059 | inactive: 0.019 | inactive: -0.008 | inactive: 0.007 | inactive: -0.013 | inactive: -0.004 | inactive: 0 | inactive: -0.02 | inactive: -0.071
TRA2B (UniProt P62995) | inactive: -0.019 | inactive: -0.149 | inactive: 0.011 | inactive: -0.036 | inactive: -0.026 | inactive: -0.054 | inactive: -0.076 | inactive: 0.03 | inactive: -0.032 | inactive: 0.029 | inactive: 0.017 | inactive: -0.009 | inactive: -0.013 | inactive: -0.024 | inactive: 0.049 | inactive: 0.011 | inactive: -0.072 | inactive: 0.064 | inactive: 0.043 | inactive: 0
TOR1AIP2 (UniProt Q9H496) | inactive: 0.084 | inactive: 0.035 | inactive: 0.069 | inactive: -0.182 | inactive: -0.015 | inactive: -0.014 | inactive: -0.426 | inactive: -0.127 | inactive: 0.109 | inactive: -0.036 | inactive: -0.14 | inactive: 0.106 | inactive: 0.017 | inactive: 0.073 | inactive: -0.032 | inactive: -0.103 | inactive: -0.083 | inactive: 0.095 | inactive: 0.001 | inactive: 0.096
TNFAIP2 (UniProt Q03169) | inactive: 0.012 | inactive: -0.01 | inactive: 0.003 | inactive: 0.046 | inactive: 0.012 | inactive: 0.068 | inactive: -0.067 | inactive: -0.111 | inactive: 0.076 | inactive: 0.086 | inactive: 0.011 | inactive: -0.023 | inactive: -0.187 | inactive: -0.264 | inactive: -0.073 | inactive: -0.063 | inactive: -0.136 | inactive: 0.092 | inactive: -0.066 | inactive: -0.043
TMEM97 (UniProt Q5BJF2) | inactive: 0.01 | inactive: 0.043 | inactive: 0.036 | inactive: 0.007 | inactive: 0.019 | inactive: 0 | inactive: 0.002 | inactive: -0.033 | inactive: 0.018 | inactive: 0.091 | inactive: 0.01 | inactive: 0.012 | inactive: 0.004 | inactive: -0.056 | inactive: -0.034 | inactive: -0.025 | inactive: -0.032 | inactive: 0.003 | inactive: 0.042 | inactive: -0.017
TMEM263 (UniProt Q8WUH6) | inactive: -0.114 | inactive: -0.104 | inactive: 0.273 | inactive: -0.119 | inactive: -0.022 | inactive: -0.05 | inactive: -0.012 | inactive: -0.006 | inactive: 0.095 | inactive: 0.026 | inactive: -0.04 | inactive: -0.003 | inactive: -0.037 | inactive: -0.174 | inactive: -0.002 | inactive: 0.349 | inactive: 0.049 | inactive: -0.058 | inactive: 0.004 | inactive: -0.079
TOMM70 (UniProt O94826) | inactive: 0.032 | inactive: 0.033 | inactive: 0.044 | inactive: 0.028 | inactive: 0.011 | inactive: 0.01 | inactive: -0.032 | inactive: 0.014 | inactive: 0.035 | inactive: 0.002 | inactive: -0.043 | inactive: -0.026 | inactive: -0.021 | inactive: 0.029 | inactive: 0.053 | inactive: -0.025 | inactive: 0.041 | inactive: -0.01 | inactive: 0.023 | inactive: 0.002
TMEM41A (UniProt Q96HV5) | inactive: -0.045 | inactive: -0.06 | inactive: 0.062 | inactive: 0 | inactive: 0.061 | inactive: -0.003 | inactive: 0.082 | inactive: 0 | inactive: 0 | inactive: 0.08 | inactive: 0.048 | inactive: 0.045 | inactive: 0.058 | inactive: 0.005 | inactive: -0.077 | inactive: 0.011 | inactive: -0.156 | inactive: -0.05 | inactive: -0.002 | inactive: 0.016
TOMM7 (UniProt Q9P0U1) | inactive: 0.031 | inactive: -0.021 | inactive: -0.039 | inactive: -0.042 | inactive: -0.015 | inactive: 0.083 | inactive: -0.055 | inactive: -0.029 | inactive: 0.005 | inactive: -0.003 | inactive: 0.065 | inactive: -0.049 | inactive: 0.037 | inactive: -0.012 | inactive: 0.008 | inactive: 0.011 | inactive: -0.045 | inactive: 0.131 | inactive: -0.065 | inactive: -0.007
TPST2 (UniProt O60704) | inactive: -0.064 | inactive: -0.062 | inactive: 0.042 | inactive: 0.049 | inactive: -0.002 | inactive: -0.016 | inactive: -0.06 | inactive: 0.015 | inactive: 0.032 | inactive: -0.038 | inactive: -0.098 | inactive: -0.036 | inactive: 0.006 | inactive: 0.019 | inactive: -0.08 | inactive: 0.039 | inactive: -0.06 | inactive: -0.039 | inactive: -0.036 | inactive: -0.08
TOR1A (UniProt O14656) | inactive: -0.038 | inactive: -0.044 | inactive: 0.027 | inactive: -0.014 | inactive: 0.003 | inactive: -0.033 | inactive: -0.022 | inactive: 0.02 | inactive: -0.032 | inactive: 0.056 | inactive: -0.031 | inactive: -0.016 | inactive: 0.02 | inactive: -0.048 | inactive: 0.046 | inactive: 0.013 | inactive: 0.001 | inactive: -0.003 | inactive: -0.008 | inactive: 0.01
TNPO3 (UniProt Q9Y5L0) | inactive: 0.022 | inactive: 0.001 | inactive: -0.019 | inactive: -0.018 | inactive: 0.019 | inactive: -0.008 | inactive: 0 | inactive: 0.018 | inactive: 0.017 | inactive: 0.021 | inactive: -0.008 | inactive: 0.015 | inactive: 0.003 | inactive: -0.023 | inactive: -0.033 | inactive: -0.006 | inactive: 0 | inactive: -0.015 | inactive: 0.003 | inactive: 0.008
TPM3 isoform 2 (UniProt P06753) | inactive: -0.075 | inactive: -0.007 | inactive: -0.065 | inactive: -0.008 | inactive: 0.003 | inactive: 0.004 | inactive: 0.038 | inactive: 0.039 | inactive: -0.074 | inactive: -0.042 | inactive: 0.03 | inactive: -0.007 | inactive: -0.02 | inactive: 0.05 | inactive: -0.034 | inactive: -0.005 | inactive: -0.019 | inactive: -0.073 | inactive: 0.002 | inactive: -0.006
TMEM189-UBE2V1 (UniProt I3L0A0) | inactive: -0.041 | inactive: 0.25 | inactive: 0.019 | inactive: -0.019 | inactive: 0.003 | inactive: 0.024 | inactive: 0.061 | inactive: -0.015 | inactive: -0.013 | inactive: -0.004 | inactive: 0.041 | inactive: 0.004 | inactive: 0.042 | inactive: -0.04 | inactive: 0.012 | inactive: -0.007 | inactive: -0.005 | inactive: 0.032 | inactive: -0.053 | inactive: 0.003
TNRC6B (UniProt Q9UPQ9) | inactive: 0.01 | inactive: 0.078 | inactive: 0.013 | inactive: -0.043 | inactive: -0.032 | inactive: -0.026 | inactive: -0.091 | inactive: -0.032 | inactive: -0.006 | inactive: -0.004 | inactive: 0.027 | inactive: -0.052 | inactive: -0.016 | inactive: -0.021 | inactive: -0.01 | inactive: 0.029 | inactive: -0.01 | inactive: -0.144 | inactive: 0.018 | inactive: -0.057

Whole records from above. Values in the order: log2 fold change (erlotinib) | log2 fold change [1] | log2 fold change [2] | log2 fold change [3] | log2 fold change [4] | log2 fold change [5] | log2 fold change [6] | log2 fold change [7] | log2 fold change [8] | log2 fold change (IRAK-1-4 Inhibitor I) | log2 fold change (ibrutinib) | log2 fold change [9] | log2 fold change (ralimetinib) | log2 fold change [10] | log2 fold change [11] | log2 fold change [12] | log2 fold change [13] | log2 fold change [14] | log2 fold change [15] | log2 fold change [16]
TOMM70 (UniProt O94826) is listed with inactive: 0.032 | inactive: 0.033 | inactive: 0.044 | inactive: 0.028 | inactive: 0.011 | inactive: 0.01 | inactive: -0.032 | inactive: 0.014 | inactive: 0.035 | inactive: 0.002 | inactive: -0.043 | inactive: -0.026 | inactive: -0.021 | inactive: 0.029 | inactive: 0.053 | inactive: -0.025 | inactive: 0.041 | inactive: -0.01 | inactive: 0.023 | inactive: 0.002
TOMM7 (UniProt Q9P0U1) is listed with inactive: 0.031 | inactive: -0.021 | inactive: -0.039 | inactive: -0.042 | inactive: -0.015 | inactive: 0.083 | inactive: -0.055 | inactive: -0.029 | inactive: 0.005 | inactive: -0.003 | inactive: 0.065 | inactive: -0.049 | inactive: 0.037 | inactive: -0.012 | inactive: 0.008 | inactive: 0.011 | inactive: -0.045 | inactive: 0.131 | inactive: -0.065 | inactive: -0.007
